How the values were obtained:
Rat [1] = experiment: concentration in blood after dosing; details: 10 min; dosed: Benzophenone; 5 mg/kg; oral; Male; F344
Rat [2] = experiment: concentration in plasma after dosing; details: dosed: Benzophenone, 10 mg/kg, oral, Male, F344
Mouse [3] = experiment: concentration in plasma after dosing; details: 0.5 h; dosed: Benzophenone; 15 mg/kg; oral; Male; B6C3F1
Rat [4] = experiment: concentration in plasma after dosing; details: dosed: Benzophenone, 5 mg/kg, oral, Male, F344
Rat [5] = experiment: concentration in blood after dosing; details: 5 min; dosed: Benzophenone; 5 mg/kg; oral; Female; F344
Mouse [6] = experiment: concentration in plasma after dosing; details: 10 min; dosed: Benzophenone; 15 mg/kg; oral; Female; B6C3F1
Mouse [7] = experiment: concentration in plasma after dosing; details: 10 min; dosed: Benzophenone; 60 mg/kg; oral; Female; B6C3F1
Rat [8] = experiment: concentration in plasma after dosing; details: dosed: Benzophenone, 5 mg/kg, oral, Male, F344; remark: listed apart in the source
Mouse [9] = experiment: concentration in plasma after dosing; details: 7 min; dosed: Benzophenone; 15 mg/kg; iv; Male; B6C3F1
Rat [10] = experiment: concentration in plasma after dosing; details: dosed: Benzophenone, 5 mg/kg, oral, Male, F344; remark: listed apart in the source
Mouse [11] = experiment: concentration in plasma after dosing; details: 3 h; dosed: Benzophenone; 15 mg/kg; iv; Male; B6C3F1
Mouse [12] = experiment: concentration in plasma after dosing; details: 2.5 min; dosed: Benzophenone; 60 mg/kg; oral; Male; B6C3F1
Mouse [13] = experiment: concentration in plasma after dosing; details: 1 h; dosed: Benzophenone; 15 mg/kg; iv; Male; B6C3F1
Rat [14] = experiment: concentration in plasma after dosing; details: dosed: Benzophenone, 5 mg/kg, oral, Male, F344; remark: listed apart in the source
Mouse [15] = experiment: concentration in plasma after dosing; details: 10 min; dosed: Benzophenone; 60 mg/kg; oral; Male; B6C3F1
Rat [16] = experiment: concentration in plasma after dosing; details: dosed: Benzophenone, 10 mg/kg, oral, Female, F344
Mouse [17] = experiment: concentration in plasma after dosing; details: 2.5 min; dosed: Benzophenone; 15 mg/kg; oral; Male; B6C3F1
Mouse [18] = experiment: concentration in plasma after dosing; details: 5 min; dosed: Benzophenone; 30 mg/kg; oral; Female; B6C3F1
Rat [19] = experiment: concentration in blood after dosing; details: 5 min; dosed: Benzophenone; 10 mg/kg; oral; Female; F344
Mouse [20] = experiment: concentration in plasma after dosing; details: 4 h; dosed: Benzophenone; 15 mg/kg; oral; Female; B6C3F1
Mouse [21] = experiment: concentration in plasma after dosing; details: 0.25 h; dosed: Benzophenone; 15 mg/kg; oral; Male; B6C3F1
Rat [22] = experiment: concentration in blood after dosing; details: 0.25 h; dosed: Benzophenone; 10 mg/kg; oral; Female; F344
Rat [23] = experiment: concentration in plasma after dosing; details: 16 h; dosed: Benzophenone; 5 mg/kg; oral; Male; F344
Mouse [24] = experiment: concentration in plasma after dosing; details: 5 min; dosed: Benzophenone; 30 mg/kg; oral; Female; B6C3F1; remark: listed apart in the source
Mouse [25] = experiment: concentration in plasma after dosing; details: 5 min; dosed: Benzophenone; 60 mg/kg; oral; Male; B6C3F1
Rat [26] = experiment: concentration in blood after dosing; details: 10 min; dosed: Benzophenone; 10 mg/kg; oral; Male; F344
Rat [27] = experiment: concentration in plasma after dosing; details: dosed: Benzophenone, 10 mg/kg, oral, Female, F344; remark: listed apart in the source
Mouse [28] = experiment: concentration in plasma after dosing; details: 2 h; dosed: Benzophenone; 60 mg/kg; oral; Male; B6C3F1
Mouse [29] = experiment: concentration in plasma after dosing; details: 5 min; dosed: Benzophenone; 15 mg/kg; oral; Female; B6C3F1
Mouse [30] = experiment: concentration in plasma after dosing; details: 0.5 h; dosed: Benzophenone; 15 mg/kg; iv; Male; B6C3F1
Mouse [31] = experiment: concentration in plasma after dosing; details: 1 h; dosed: Benzophenone; 30 mg/kg; oral; Female; B6C3F1
Mouse [32] = experiment: concentration in plasma after dosing; details: 7 min; dosed: Benzophenone; 15 mg/kg; iv; Female; B6C3F1
Mouse [33] = experiment: concentration in plasma after dosing; details: 3 h; dosed: Benzophenone; 60 mg/kg; oral; Male; B6C3F1
Mouse [34] = experiment: concentration in plasma after dosing; details: 0.5 h; dosed: Benzophenone; 15 mg/kg; oral; Male; B6C3F1; remark: listed apart in the source
Mouse [35] = experiment: concentration in plasma after dosing; details: 1.5 h; dosed: Benzophenone; 15 mg/kg; iv; Female; B6C3F1
Mouse [36] = experiment: concentration in plasma after dosing; details: 5 min; dosed: Benzophenone; 60 mg/kg; oral; Female; B6C3F1
Rat [37] = experiment: concentration in blood after dosing; details: 10 min; dosed: Benzophenone; 10 mg/kg; oral; Male; F344; remark: listed apart in the source
Rat [38] = experiment: concentration in plasma after dosing; details: dosed: Benzophenone, 10 mg/kg, oral, Male, F344; remark: listed apart in the source
Mouse [39] = experiment: concentration in plasma after dosing; details: 3 h; dosed: Benzophenone; 30 mg/kg; oral; Female; B6C3F1
Rat [40] = experiment: concentration in plasma after dosing; details: dosed: Benzophenone, 5 mg/kg, oral, Male, F344; remark: listed apart in the source
Mouse [41] = experiment: concentration in plasma after dosing; details: 2.5 min; dosed: Benzophenone; 15 mg/kg; oral; Male; B6C3F1; remark: listed apart in the source

O=C(c1ccccc1)c1ccccc1 [Benzophenone]
Details | concentration in blood [ng/mL] | concentration in plasma [ng/mL]
Mouse [3] | – | 152
Mouse [6] | – | 529
Mouse [7] | – | 3260
Mouse [9] | – | 3630
Mouse [11] | – | 175
Mouse [12] | – | 2650
Mouse [13] | – | 211
Mouse [15] | – | 3740
Mouse [17] | – | 255
Mouse [18] | – | 1340
Mouse [20] | – | 50.4
Mouse [21] | – | 413
Mouse [24] | – | 2390
Mouse [25] | – | 6330
Mouse [28] | – | 408
Mouse [29] | – | 597
Mouse [30] | – | 2440
Mouse [31] | – | 417
Mouse [32] | – | 2920
Mouse [33] | – | 228
Mouse [34] | – | 252
Mouse [35] | – | 269
Mouse [36] | – | 2830
Mouse [39] | – | 111
Mouse [41] | – | 261
Rat [1] | 466 | –
Rat [5] | 778 | –
Rat [19] | 2020 | –
Rat [22] | 1610 | –
Rat [23] | – | 38.7
Rat [26] | 1410 | –
Rat [37] | 561 | –

Details | concentration in plasma [ng/mL]
Rat [2], 0.25 h | 474
Rat [2], 24 h | 43.5
Rat [4], 1 h | 87.5
Rat [4], 2.5 min | 10.6
Rat [8], 0.125 h | 127
Rat [8], 3 h | 104
Rat [10], 0.125 h | 132
Rat [10], 3 h | 69.3
Rat [14], 2 h | 117
Rat [14], 5 min | 89.4
Rat [16], 0.125 h | 619
Rat [16], 3 h | 225
Rat [27], 6 h | 167
Rat [27], 10 min | 370
Rat [38], 0.125 h | 413
Rat [38], 3 h | 184
Rat [40], 0.5 h | 172
Rat [40], 10 h | 53.4

Source: EPA's CvTdb concentration-time database
